Laboratory results from patent publication US8293489B2, “Methods for detection of biological substances” (priority 2007, dated 2012).

Test: 96 plate colorimetric ELISA comparison of biological substances in various bodily fluids
Parameters: species or system human

B1: Vascular Endothelial Growth Factor D (VEGF-D) (protein, UniProt O43915 89-205, looked up)
Vascular endothelial growth …: FAATFYDIETLKVIDEEWQRTQCSPRETCVEVASELGKSTNTFFKPPCVNVFRCGGCCNEESLICMNTSTSYISKQLFEISVPLTSVPELVPVKVANHTGCKCLPTAPRHPYSIIRR
concentration in NASAL MUCUS: 29.2 ± 8.2 pg/mL
concentration in PLASMA: 469.0 ± 57.4 pg/mL
concentration in SALIVA: 6.5 ± 5.5 pg/mL
concentration in URINE: 11.7 ± 7.9 pg/mL

B2: Vascular Endothelial Growth Factor - Receptor 1 (VEGF-R1) (protein, UniProt P17948 27-1338, looked up)
Vascular endothelial growth …: SKLKDPELSLKGTQHIMQAGQTLHLQCRGEAAHKWSLPEMVSKESERLSITKSACGRNGKQFCSTLTLNTAQANHTGFYSCKYLAVPTSKKKETESAIYIFISDTGRPFVEMYSEIPEIIHMTEGRELVIPCRVTSPNITVTLKKFPLDTLIPDGKRIIWDSRKGFIISNATYKEIGLLTCEATVNGHLYKTNYLTHRQTNTIIDVQISTPRPVKLLRGHTLVLNCTATTPLNTRVQMTWSYPDEKNKRASVRRRIDQSNSHANIFYSVLTIDKMQNKDKGLYTCRVRSGPSFKSVNTSVHIYDKAFITVKHRKQQVLETVAGKRSYRLSMKVKAFPSPEVVWLKDGLPATEKSARYLTRGYSLIIKDVTEEDAGNYTILLSIKQSNVFKNLTATLIVNVKPQIYEKAVSSFPDPALYPLGSRQILTCTAYGIPQPTIKWFWHPCNHNHSEARCDFCSNNEESFILDADSNMGNRIESITQRMAIIEGKNKMASTLVVADSRISGIYICIASNKVGTVGRNISFYITDVPNGFHVNLEKMPTEGEDLKLSCTVNKFLYRDVTWILLRTVNNRTMHYSISKQKMAITKEHSITLNLTIMNVSLQDSGTYACRARNVYTGEEILQKKEITIRDQEAPYLLRNLSDHTVAISSSTTLDCHANGVPEPQITWFKNNHKIQQEPGIILGPGSSTLFIERVTEEDEGVYHCKATNQKGSVESSAYLTVQGTSDKSNLELITLTCTCVAATLFWLLLTLFIRKMKRSSSEIKTDYLSIIMDPDEVPLDEQCERLPYDASKWEFARERLKLGKSLGRGAFGKVVQASAFGIKKSPTCRTVAVKMLKEGATASEYKALMTELKILTHIGHHLNVVNLLGACTKQGGPLMVIVEYCKYGNLSNYLKSKRDLFFLNKDAALHMEPKKEKMEPGLEQGKKPRLDSVTSSESFASSGFQEDKSLSDVEEEEDSDGFYKEPITMEDLISYSFQVARGMEFLSSRKCIHRDLAARNILLSENNVVKICDFGLARDIYKNPDYVRKGDTRLPLKWMAPESIFDKIYSTKSDVWSYGVLLWEIFSLGGSPYPGVQMDEDFCSRLREGMRMRAPEYSTPEIYQIMLDCWHRDPKERPRFAELVEKLGDLLQANVQQDGKDYIPINAILTGNSGFTYSTPAFSEDFFKESISAPKFNSGSSDDVRYVNAFKFMSLERIKTFEELLPNATSMFDDYQGDSSTLLASPMLKRFTWTDSKPKASLKIDLRVTSKSKESGLSDVSRPSFCHSSCGHVSEGKRRFTYDHAELERKIACCSPPPDYNSVVLYSTPPI
concentration in NASAL MUCUS: 1532 ± 445 pg/mL
concentration in PLASMA: 378 ± 37 pg/mL
concentration in SALIVA: 492 ± 63 pg/mL
concentration in URINE: 317 ± 39 pg/mL

B3: Ciliary Neurotrophic Factor (CNF) (protein, UniProt P26441 1-200, looked up)
Ciliary neurotrophic factor: MAFTEHSPLTPHRRDLCSRSIWLARKIRSDLTALTESYVKHQGLNKNINLDSADGMPVASTDQWSELTEAERLQENLQAYRTFHVLLARLLEDQQVHFTPTEGDFHQAIHTLLLQVAAFAYQIEELMILLEYKIPRNEADGMPINVGDGGLFEKKLWGLKVLQELSQWTVRSIHDLRFISSHQTGIPARGSHYIANNKKM
concentration in NASAL MUCUS: 0 pg/mL
concentration in PLASMA: 0 pg/mL
concentration in SALIVA: 0 pg/mL
concentration in URINE: 0 pg/mL

B4: E Selectin (protein, UniProt P16581 22-610, looked up)
E-selectin: WSYNTSTEAMTYDEASAYCQQRYTHLVAIQNKEEIEYLNSILSYSPSYYWIGIRKVNNVWVWVGTQKPLTEEAKNWAPGEPNNRQKDEDCVEIYIKREKDVGMWNDERCSKKKLALCYTAACTNTSCSGHGECVETINNYTCKCDPGFSGLKCEQIVNCTALESPEHGSLVCSHPLGNFSYNSSCSISCDRGYLPSSMETMQCMSSGEWSAPIPACNVVECDAVTNPANGFVECFQNPGSFPWNTTCTFDCEEGFELMGAQSLQCTSSGNWDNEKPTCKAVTCRAVRQPQNGSVRCSHSPAGEFTFKSSCNFTCEEGFMLQGPAQVECTTQGQWTQQIPVCEAFQCTALSNPERGYMNCLPSASGSFRYGSSCEFSCEQGFVLKGSKRLQCGPTGEWDNEKPTCEAVRCDAVHQPPKGLVRCAHSPIGEFTYKSSCAFSCEEGFELHGSTQLECTSQGQWTEEVPSCQVVKCSSLAVPGKINMSCSGEPVFGTVCKFACPEGWTLNGSAARTCGATGHWSGLLPTCEAPTESNIPLVAGLSAAGLSLLTLAPFLLWLRKCLRKAKKFVPASSCQSLESDGSYQKPSYIL
concentration in NASAL MUCUS: 580 ± 490 pg/mL
concentration in PLASMA: 20000 ± 4500 pg/mL
concentration in SALIVA: 0 pg/mL
concentration in URINE: 0 pg/mL

B5: Endoglin (protein, UniProt P17813 26-658, looked up)
Endoglin: ETVHCDLQPVGPERGEVTYTTSQVSKGCVAQAPNAILEVHVLFLEFPTGPSQLELTLQASKQNGTWPREVLLVLSVNSSVFLHLQALGIPLHLAYNSSLVTFQEPPGVNTTELPSFPKTQILEWAAERGPITSAAELNDPQSILLRLGQAQGSLSFCMLEASQDMGRTLEWRPRTPALVRGCHLEGVAGHKEAHILRVLPGHSAGPRTVTVKVELSCAPGDLDAVLILQGPPYVSWLIDANHNMQIWTTGEYSFKIFPEKNIRGFKLPDTPQGLLGEARMLNASIVASFVELPLASIVSLHASSCGGRLQTSPAPIQTTPPKDTCSPELLMSLIQTKCADDAMTLVLKKELVAHLKCTITGLTFWDPSCEAEDRGDKFVLRSAYSSCGMQVSASMISNEAVVNILSSSSPQRKKVHCLNMDSLSFQLGLYLSPHFLQASNTIEPGQQSFVQVRVSPSVSEFLLQLDSCHLDLGPEGGTVELIQGRAAKGNCVSLLSPSPEGDPRFSFLLHFYTVPIPKTGTLSCTVALRPKTGSQDQEVHRTVFMRLNIISPDLSGCTSKGLVLPAVLGITFGAFLIGALLTAALWYIYSHTRSPSKREPVVAVAAPASSESSSTNHSIGSTQSTPCSTSSMA
concentration in NASAL MUCUS: 20 ± 60 pg/mL
concentration in PLASMA: 27000 ± 100 pg/mL
concentration in SALIVA: 0 pg/mL
concentration in URINE: 0 pg/mL

B6: Endostatin (protein, UniProt P39060 1572-1754, looked up)
Endostatin: HSHRDFQPVLHLVALNSPLSGGMRGIRGADFQCFQQARAVGLAGTFRAFLSSRLQDLYSIVRRADRAAVPIVNLKDELLFPSWEALFSGSEGPLKPGARIFSFDGKDVLRHPTWPQKSVWHGSDPNGRRLTESYCETWRTEAPSATGQASSLLGGRLLGQSAASCHHAYIVLCIENSFMTASK
modifications: Endostatin
concentration in NASAL MUCUS: 6000 ± 1300 pg/mL
concentration in PLASMA: 102000 ± 9000 pg/mL
concentration in SALIVA: 1300 ± 300 pg/mL
concentration in URINE: 400 ± 20 pg/mL

B7: Intercellular Adhesion Molecule 1 (ICAM-1) (protein, UniProt P05362 28-532, looked up)
Intercellular adhesion …: QTSVSPSKVILPRGGSVLVTCSTSCDQPKLLGIETPLPKKELLLPGNNRKVYELSNVQEDSQPMCYSNCPDGQSTAKTFLTVYWTPERVELAPLPSWQPVGKNLTLRCQVEGGAPRANLTVVLLRGEKELKREPAVGEPAEVTTTVLVRRDHHGANFSCRTELDLRPQGLELFENTSAPYQLQTFVLPATPPQLVSPRVLEVDTQGTVVCSLDGLFPVSEAQVHLALGDQRLNPTVTYGNDSFSAKASVSVTAEDEGTQRLTCAVILGNQSQETLQTVTIYSFPAPNVILTKPEVSEGTEVTVKCEAHPRAKVTLNGVPAQPLGPRAQLLLKATPEDNGRSFSCSATLEVAGQLIHKNQTRELRVLYGPRLDERDCPGNWTWPENSQQTPMCQAWGNPLPELKCLKDGTFPLPIGESVTVTRDLEGTYLCRARSTQGEVTRKVTVNVLSPRYEIVIITVVAAAVIMGTAGLSTYLYNRQRKIKKYRLQQAQKGTPMKPNTQATPP
concentration in NASAL MUCUS: 34000 ± 4000 pg/mL
concentration in PLASMA: 126000 ± 8000 pg/mL
concentration in SALIVA: 19000 ± 1000 pg/mL

B8: Keratinocyte Growth Factor (KGF) (protein, UniProt P21781 32-194, looked up)
Fibroblast growth factor 7: CNDMTPEQMATNVNCSSPERHTRSYDYMEGGDIRVRRLFCRTQWYLRIDKRGKVKGTQEMKNNYNIMEIRTVAVGIVAIKGVESEFYLAMNKEGKLYAKKECNEDCNFKELILENHYNTYASAKWTHNGGEMFVALNQKGIPVRGKKTKKEQKTAHFLPMAIT
concentration in NASAL MUCUS: 15.2 ± 2.9 pg/mL
concentration in PLASMA: 2.8 ± 2.8 pg/mL
concentration in SALIVA: 0 pg/mL
concentration in URINE: 0 pg/mL

B9: L Selectin (protein, UniProt P14151 39-372, looked up)
L-selectin: WTYHYSEKPMNWQRARRFCRDNYTDLVAIQNKAEIEYLEKTLPFSRSYYWIGIRKIGGIWTWVGTNKSLTEEAENWGDGEPNNKKNKEDCVEIYIKRNKDAGKWNDDACHKLKAALCYTASCQPWSCSGHGECVEIINNYTCNCDVGYYGPQCQFVIQCEPLEAPELGTMDCTHPLGNFSFSSQCAFSCSEGTNLTGIEETTCGPFGNWSSPEPTCQVIQCEPLSAPDLGIMNCSHPLASFSFTSACTFICSEGTELIGKKKTICESSGIWSNPSPICQKLDKSFSMIKEGDYNPLFIPVAVMVTAFSGLAFIIWLARRLKKGKKSKRSMNDPY
concentration in NASAL MUCUS: 25350 ± 3150 pg/mL
concentration in PLASMA: 20100 ± 1400 pg/mL
concentration in SALIVA: 0 pg/mL
concentration in URINE: 0 pg/mL

B10: Macrophage Inhibitory Factor (MIF) (protein, UniProt P14174 2-115, looked up)
Macrophage migration …: PMFIVNTNVPRASVPDGFLSELTQQLAQATGKPPQYIAVHVVPDQLMAFGGSSEPCALCSLHSIGKIGGAQNRSYSKLLCGLLAERLRISPDRVYINYYDMNAANVGWNNSTFA
concentration in NASAL MUCUS: 135 ± 27 pg/mL
concentration in PLASMA: 2.8 ± 0.2 pg/mL
concentration in SALIVA: 0 pg/mL
concentration in URINE: 0 pg/mL
